Experimental data taken from publication PMC9203742 (Nature Communications, 2022).
Values joined by “and” are separate entries in the source; they are usually repeats but may differ in a detail not shown here. Identical values can stand only once. This continues a long series; more values of the same kind are listed elsewhere.

Experiments:
Assay type in all cases: cell-based, mouse
[1] = system: Purkinje cells in cerebellar slices from mGlu1^+/+ mice; assay: chemLTD recording (PF-EPSC) in Purkinje cells of acute cerebellar slices, mGlu1^+/+ mice; settings: individual cells
Description: (§1) Sagittal cerebellar slices were cut with a microslicer (Linear slicer Pro7; DOSAKA EM) in cutting solution buffer and then incubated in ACSF gassed with 5% CO2 and 95% O2 at room temperature.
(§2) Whole-cell patch-clamp recordings were made from visually identified Purkinje cells using a 60× water-immersion objective attached to an upright microscope (BX51WI, Olympus) at room temperature, as described previously. […] Picrotoxin (100 µM; Sigma) was always added to the saline to block inhibitory synaptic transmission.
(§3) To evoke EPSCs derived from CF (CF-EPSCs) and PF (PF-EPSCs) inputs onto Purkinje cells, square pulses were applied through a stimulating electrode placed on the granular layer and the molecular layer (50 µm away from the pial surface), respectively. The selective stimulation of CFs and PFs was confirmed by the paired-pulse depression (PPD) and paired-pulse facilitation (PPF) of EPSC amplitudes at a 50-ms interstimulus interval (ISI), respectively.
(§4) For the LTD sessions, PF-EPSCs were recorded successively at a frequency of 0.1 Hz from Purkinje cells clamped at –80 mV. After a stable PF-EPSC amplitude had been observed for at least 5 min, a conjunctive stimulation that consisted of 30 single PF stimuli together with a 200 ms depolarizing pulse from a holding potential of –60 to +20 mV was applied for LTD induction.
(§5) To chemically induce LTD (chemLTD), 50 µM (S)-3,5-dihydroxyphenylglycine (DHPG) or 1 µM Pd(sulfo-bpy) was applied for 10 min in a current-clamp mode. We often observed a transient decrease in PF-EPSC amplitude after the application of each drug probably because Purkinje cells under current-clamp conditions excite spontaneously to suppress presynaptic function through the retrograde signaling. Access resistances were monitored every 10 s by measuring the peak currents in response to 2 mV, 50-ms hyperpolarizing steps throughout the experiments; the measurements were discarded if the resistance changed by >20% of its original value. The normalized EPSC amplitude on the ordinate represents the EPSC amplitude for the average of six traces for 1 min divided by that of the average of six traces for 1 min immediately before the conjunctive stimulation or the drug application.

[2] = system: Purkinje cells in cerebellar slices from mGlu1^CBC/CBC mice; assay: chemLTD recording (PF-EPSC) in Purkinje cells of acute cerebellar slices, mGlu1^CBC/CBC mice; settings: mGlu1CBC/CBC, individual cells
Description: as §1, §2, §3, §4, §5

[3] = system: Purkinje cells in cerebellar slices from mGlu1^CBC/+ mice; assay: chemLTD recording (PF-EPSC) in Purkinje cells of acute cerebellar slices, mGlu1^CBC/+ mice; settings: mGlu1CBC/+, individual cells
Description: as §1, §2, §3, §4, §5

Cc1ccnc(-c2cc(COCCCS(=O)(=O)[O-])ccn2)c1.[Cl][Pd][Cl].[Na+] [Pd(sulfo-bpy)]
PF-EPSC amplitude relative to time 0 ([1]; time 23 min): 0.7917 and 0.9349 and 1.052 and 0.9311 | PF-EPSC amplitude relative to time 0 ([1]; time 24 min): 1.079 and 0.8774 and 0.8838 and 1.117 and 0.7448 and 0.8818 and 1.061 and 1.065 | PF-EPSC amplitude relative to time 0 ([1]; time 25 min): 1.072 and 0.8039 and 0.7804 and 1.073 and 0.7598 and 0.9701 and 1.143 and 0.9212 | PF-EPSC amplitude relative to time 0 ([1]; time 26 min): 1.036 and 0.8938 and 0.875 and 1.146 and 0.8379 and 0.8585 and 1.035 and 0.9704 | PF-EPSC amplitude relative to time 0 ([1]; time 27 min): 0.8542 and 0.878 and 0.8042 and 1.138 and 0.8864 and 0.9374 and 0.9944 and 0.9213 | PF-EPSC amplitude relative to time 0 ([1]; time 28 min): 1.174 and 0.8151 and 0.9718 and 1.243 and 0.9188 and 0.9457 and 0.9397 and 0.9758 | PF-EPSC amplitude relative to time 0 ([1]; time 29 min): 1.275 and 0.8047 and 1.082 and 1.134 and 0.9706 and 0.9397 and 1.063 and 0.9016 | PF-EPSC amplitude relative to time 0 ([1]; time 30 min): 1.209 and 0.9826 and 0.9243 and 0.8821 and 0.9035 and 0.6989 and 0.9406 and 0.9459 | PF-EPSC amplitude relative to time 0 ([1]; time 31 min): 1.096 and 0.9734 and 0.9056 and 0.715 and 0.9557 and 1.068 and 0.9594 and 0.951 | PF-EPSC amplitude relative to time 0 ([1]; time 32 min): 1.227 and 1.079 and 0.873 and 1.19 and 0.8908 and 0.9497 and 1.059 and 0.9301 | PF-EPSC amplitude relative to time 0 ([1]; time 33 min): 1.2674 and 0.9682 and 0.8905 and 1.006 and 0.8768 and 0.8911 and 0.9085 and 0.9413 | PF-EPSC amplitude relative to time 0 ([1]; time 34 min): 1.172 and 0.8882 and 0.887 and 1.117 and 0.8783 and 1.139 and 0.9717 and 0.9285 | PF-EPSC amplitude relative to time 0 ([1]; time 35 min): 1.249 and 0.8069 and 0.9633 and 1.305 and 0.9135 and 0.9768 and 1.001 and 0.9489 | PF-EPSC amplitude relative to time 0 ([2]; time 20 min): 0.6603 and 0.6245 and 0.9332 and 0.8291 and 0.8101 and 0.5256 and 0.7044 and 0.9643 and 0.594 and 0.5093 | PF-EPSC amplitude relative to time 0 ([2]; time 21 min): 0.8175 and 0.7771 and 0.6526 and 0.9089 and 0.7545 and 0.826 and 0.5903 and 0.6292 and 0.9028 and 0.6495 and 0.5151 | PF-EPSC amplitude relative to time 0 ([2]; time 22 min): 0.9143 and 0.7146 and 0.683 and 1.087 and 0.786 and 0.6558 and 0.5944 and 0.6587 and 0.8562 and 0.6106 and 0.483 | PF-EPSC amplitude relative to time 0 ([2]; time 23 min): 0.7184 and 0.6752 and 0.6612 and 0.9997 and 0.7861 and 0.7879 and 0.6624 and 0.6243 and 0.8711 and 0.6376 and 0.5034 | PF-EPSC amplitude relative to time 0 ([2]; time 24 min): 0.6808 and 0.6538 and 0.6539 and 1.034 and 0.7802 and 0.6909 and 0.618 and 0.6832 and 0.8294 and 0.5919 and 0.4725 | PF-EPSC amplitude relative to time 0 ([2]; time 25 min): 0.7046 and 0.7563 and 0.6659 and 1.1895 and 0.7183 and 0.7201 and 0.6197 and 0.6585 and 0.9079 and 0.6113 and 0.5126 | PF-EPSC amplitude relative to time 0 ([2]; time 26 min): 0.6771 and 0.7413 and 0.7095 and 1.035 and 0.6929 and 0.7788 and 0.6126 and 0.6278 and 0.8506 and 0.6022 and 0.45 | PF-EPSC amplitude relative to time 0 ([2]; time 27 min): 0.6315 and 0.7109 and 0.6743 and 1.171 and 0.7555 and 0.8041 and 0.6251 and 0.5864 and 0.7957 and 0.6459 and 0.4236 | PF-EPSC amplitude relative to time 0 ([2]; time 28 min): 0.6819 and 0.685 and 0.6795 and 1.126 and 0.6709 and 0.691 and 0.6293 and 0.5103 and 0.8053 and 0.5809 and 0.3534 | PF-EPSC amplitude relative to time 0 ([2]; time 29 min): 0.6577 and 0.6541 and 0.7016 and 1.16 and 0.6685 and 0.6764 and 0.6466 and 0.5951 and 0.7476 and 0.5988 and 0.5222 | PF-EPSC amplitude relative to time 0 ([2]; time 30 min): 0.6265 and 0.7297 and 0.6719 and 1.173 and 0.6769 and 0.6232 and 0.5876 and 0.5996 and 0.8849 and 0.6207 and 0.4079 | PF-EPSC amplitude relative to time 0 ([2]; time 31 min): 0.6315 and 0.5851 and 0.6853 and 1.165 and 0.7105 and 0.6077 and 0.6511 and 0.6486 and 0.8265 and 0.605 and 0.548 | PF-EPSC amplitude relative to time 0 ([2]; time 32 min): 0.6195 and 0.6305 and 0.6584 and 1.111 and 0.6418 and 0.7012 and 0.6175 and 0.5917 and 0.7819 and 0.6731 and 0.5877 | PF-EPSC amplitude relative to time 0 ([2]; time 33 min): 1.073 and 0.6193 and 0.6562 and 1.159 and 0.6348 and 0.6169 and 0.6411 and 0.6031 and 0.7758 and 0.6345 and 0.5154 | PF-EPSC amplitude relative to time 0 ([2]; time 34 min): 1.04 and 0.5461 and 1.165 and 1.14 and 0.5233 and 0.6196 and 0.5902 and 0.5519 and 0.7959 and 0.6789 and 0.4906 | PF-EPSC amplitude relative to time 0 ([2]; time 35 min): 0.5461 and 0.5469 and 1.0767 and 1.071 and 0.653 and 0.5726 and 0.5871 and 0.6113 and 0.7703 and 0.8457 and 0.4521 | PF-EPSC amplitude relative to time 0 ([3]; time 23 min): 0.6979 and 0.6667 and 0.5689 and 0.9423 | PF-EPSC amplitude relative to time 0 ([3]; time 24 min): 0.6128 and 0.6246 and 0.8331 and 0.6906 and 0.6354 and 0.7352 and 0.6004 and 0.886 | PF-EPSC amplitude relative to time 0 ([3]; time 25 min): 0.6769 and 0.5852 and 0.803 and 0.7179 and 0.6785 and 0.786 and 0.6614 and 0.8895 | PF-EPSC amplitude relative to time 0 ([3]; time 26 min): 0.6177 and 0.5789 and 0.8177 and 0.7253 and 0.6666 and 0.798 and 0.6621 and 0.8822 | PF-EPSC amplitude relative to time 0 ([3]; time 27 min): 0.5832 and 0.5989 and 0.8267 and 0.6955 and 0.7067 and 0.7231 and 0.6671 and 0.9062 | PF-EPSC amplitude relative to time 0 ([3]; time 28 min): 0.6105 and 0.5989 and 0.8749 and 0.6877 and 0.5465 and 0.7224 and 0.6773 and 0.8986
